{"source": "paper PMC9008841", "key": {"Cdk8-3HA (S. cerevisiae)": {"biological_target": "T1, Cdk8-3HA (S. cerevisiae) (UniProt P39073)", "T1 sequence": "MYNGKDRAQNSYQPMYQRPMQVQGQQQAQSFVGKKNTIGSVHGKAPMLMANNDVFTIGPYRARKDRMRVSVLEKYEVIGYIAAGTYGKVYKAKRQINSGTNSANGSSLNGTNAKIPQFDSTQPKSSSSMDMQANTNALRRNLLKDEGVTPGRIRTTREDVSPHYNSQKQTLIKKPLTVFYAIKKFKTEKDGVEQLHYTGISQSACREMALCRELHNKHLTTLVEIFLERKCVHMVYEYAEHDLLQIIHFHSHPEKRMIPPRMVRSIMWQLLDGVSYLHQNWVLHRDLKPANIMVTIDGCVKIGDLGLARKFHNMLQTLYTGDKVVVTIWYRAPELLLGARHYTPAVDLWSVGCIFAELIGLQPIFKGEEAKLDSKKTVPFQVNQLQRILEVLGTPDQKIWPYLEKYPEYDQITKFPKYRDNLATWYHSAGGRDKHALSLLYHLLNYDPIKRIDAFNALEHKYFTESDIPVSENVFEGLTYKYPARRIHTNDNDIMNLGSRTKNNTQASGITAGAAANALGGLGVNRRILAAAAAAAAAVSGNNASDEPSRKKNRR", "test": "co-IP; whole cell lysates of wild type yeast harboring Rim15-MYC and Cdk8-3HA; 1 mg soluble protein immunoprecipitated with anti-Myc or anti-HA antibodies, Protein G beads; before and after 200 ng/ml rapamycin (interaction decreased after rapamycin)"}, "[1]": {"biological_target": "T2, Gal4-BD-Cdk8 (S. cerevisiae) (UniProt P39073)", "T2 sequence": "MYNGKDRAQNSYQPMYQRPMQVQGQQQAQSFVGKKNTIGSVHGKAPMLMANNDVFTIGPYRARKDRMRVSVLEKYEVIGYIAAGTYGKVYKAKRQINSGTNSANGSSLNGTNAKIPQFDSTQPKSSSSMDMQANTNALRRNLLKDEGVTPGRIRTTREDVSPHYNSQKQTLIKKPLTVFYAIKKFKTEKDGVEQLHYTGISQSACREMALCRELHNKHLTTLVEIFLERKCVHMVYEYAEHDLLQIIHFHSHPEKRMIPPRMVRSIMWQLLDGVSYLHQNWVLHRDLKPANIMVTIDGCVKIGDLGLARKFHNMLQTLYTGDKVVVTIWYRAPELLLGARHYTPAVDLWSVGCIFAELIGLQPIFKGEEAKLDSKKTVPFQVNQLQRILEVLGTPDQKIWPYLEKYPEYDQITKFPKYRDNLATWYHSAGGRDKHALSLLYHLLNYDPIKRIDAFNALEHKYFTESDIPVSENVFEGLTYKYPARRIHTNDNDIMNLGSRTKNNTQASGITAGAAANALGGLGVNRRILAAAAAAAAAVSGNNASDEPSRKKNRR", "test": "two-hybrid; Y2H Gold cells harboring Gal4-BD-Cdk8 and Gal4-AD-Rim15 subclones; read-out induction of the ADE2 and HIS3 reporter genes"}}, "note": "These are yes or no findings as the source states them, for the method shown. For some assays here: In cells and extracts the contact can be indirect. Some binding calls cover weakened binding; strength is not graded here. For some assays here: Tags and fused reporters may be left off the sequences shown.", "data": [{"molecule": "Rim15-MYC (from UniProt P43565 1-1770)", "values": [{"measurement": "binding", "setting": "Cdk8-3HA (S. cerevisiae)", "value": "binds"}]}, {"molecule": "Gal4-AD-Rim15 PAS domain (amino acids 1-121) (domain or fragment, UniProt P43565 1-121) MFNRSNTAGGSQAMKEGLGINKLSPISSNSNPSSLTSSNYEKYLQLATEKNPCMILELELDGKVRYGSPQWNTITGVADDSGSSPTYIADLILGSDQDKGVFQKATDMLLMNDDTSCTITF", "values": [{"measurement": "binding", "setting": "[1]", "value": "binds"}]}]}
